Measurements from the supplement of paper PMC12823440, “Inhibitors supercharge kinase turnover through native proteolytic circuits” (Nature, 2025).
The list shows a part of the results. Hit calls seldom repeat between salt and free forms of one compound.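 Kinases were expressed as nanoluciferase fusions in K562 cells and luminescence was read every 4 h between 2 and 18 h as percent of control, DMSO set to 100% and a positive control to 0%. A time point counts as decreased when the signal drops significantly (2 sigma). The hit call is the authors' own, does not follow from the count of time points alone, and its rule is not shown.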

The chains behind the UniProt entries cited, without tags or fusion partners. Where a name states a change or a piece, a line headed by the entry shows the natural chain unless it says otherwise.
UniProt P00519, whole entry: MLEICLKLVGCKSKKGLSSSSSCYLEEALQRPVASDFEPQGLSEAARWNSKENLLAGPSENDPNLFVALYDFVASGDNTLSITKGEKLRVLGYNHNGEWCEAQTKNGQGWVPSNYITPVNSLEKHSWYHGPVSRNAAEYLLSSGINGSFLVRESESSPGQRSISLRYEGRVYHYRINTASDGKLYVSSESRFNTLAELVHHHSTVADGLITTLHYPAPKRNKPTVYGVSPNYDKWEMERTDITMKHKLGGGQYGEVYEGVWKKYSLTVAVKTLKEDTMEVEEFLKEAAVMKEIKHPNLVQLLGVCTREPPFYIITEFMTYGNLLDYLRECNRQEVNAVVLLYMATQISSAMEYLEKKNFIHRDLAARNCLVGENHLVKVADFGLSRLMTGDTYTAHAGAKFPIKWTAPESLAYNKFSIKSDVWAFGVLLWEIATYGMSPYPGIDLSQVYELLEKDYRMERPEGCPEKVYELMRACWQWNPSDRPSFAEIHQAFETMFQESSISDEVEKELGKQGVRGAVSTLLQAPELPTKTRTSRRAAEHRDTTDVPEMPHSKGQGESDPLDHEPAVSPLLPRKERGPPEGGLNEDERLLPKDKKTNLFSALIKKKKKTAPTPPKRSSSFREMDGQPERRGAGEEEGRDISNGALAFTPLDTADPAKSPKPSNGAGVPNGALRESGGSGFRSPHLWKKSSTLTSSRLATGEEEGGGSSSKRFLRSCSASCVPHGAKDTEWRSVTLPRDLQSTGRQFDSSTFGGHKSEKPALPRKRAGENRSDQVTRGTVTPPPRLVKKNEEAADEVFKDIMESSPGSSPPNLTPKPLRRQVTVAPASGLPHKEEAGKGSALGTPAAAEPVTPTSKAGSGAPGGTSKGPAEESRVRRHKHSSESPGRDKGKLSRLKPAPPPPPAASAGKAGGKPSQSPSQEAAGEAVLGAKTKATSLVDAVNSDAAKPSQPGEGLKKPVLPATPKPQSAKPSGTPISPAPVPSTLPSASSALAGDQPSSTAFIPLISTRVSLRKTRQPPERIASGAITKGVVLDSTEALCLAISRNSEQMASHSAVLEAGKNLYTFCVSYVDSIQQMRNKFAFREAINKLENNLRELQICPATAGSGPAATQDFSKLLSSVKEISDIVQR
UniProt P31749: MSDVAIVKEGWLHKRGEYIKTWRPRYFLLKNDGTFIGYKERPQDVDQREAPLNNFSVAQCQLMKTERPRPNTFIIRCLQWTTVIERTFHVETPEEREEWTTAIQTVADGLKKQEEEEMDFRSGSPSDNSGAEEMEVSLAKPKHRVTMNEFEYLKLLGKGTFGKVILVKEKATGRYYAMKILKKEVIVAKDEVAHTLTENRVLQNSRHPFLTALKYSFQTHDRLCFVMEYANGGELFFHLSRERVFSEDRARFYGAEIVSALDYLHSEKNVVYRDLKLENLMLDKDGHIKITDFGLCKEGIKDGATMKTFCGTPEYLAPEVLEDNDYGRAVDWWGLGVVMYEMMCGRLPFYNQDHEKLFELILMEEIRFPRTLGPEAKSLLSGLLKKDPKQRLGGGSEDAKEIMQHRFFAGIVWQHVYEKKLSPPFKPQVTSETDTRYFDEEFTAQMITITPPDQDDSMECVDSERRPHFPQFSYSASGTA
UniProt Q9UM73: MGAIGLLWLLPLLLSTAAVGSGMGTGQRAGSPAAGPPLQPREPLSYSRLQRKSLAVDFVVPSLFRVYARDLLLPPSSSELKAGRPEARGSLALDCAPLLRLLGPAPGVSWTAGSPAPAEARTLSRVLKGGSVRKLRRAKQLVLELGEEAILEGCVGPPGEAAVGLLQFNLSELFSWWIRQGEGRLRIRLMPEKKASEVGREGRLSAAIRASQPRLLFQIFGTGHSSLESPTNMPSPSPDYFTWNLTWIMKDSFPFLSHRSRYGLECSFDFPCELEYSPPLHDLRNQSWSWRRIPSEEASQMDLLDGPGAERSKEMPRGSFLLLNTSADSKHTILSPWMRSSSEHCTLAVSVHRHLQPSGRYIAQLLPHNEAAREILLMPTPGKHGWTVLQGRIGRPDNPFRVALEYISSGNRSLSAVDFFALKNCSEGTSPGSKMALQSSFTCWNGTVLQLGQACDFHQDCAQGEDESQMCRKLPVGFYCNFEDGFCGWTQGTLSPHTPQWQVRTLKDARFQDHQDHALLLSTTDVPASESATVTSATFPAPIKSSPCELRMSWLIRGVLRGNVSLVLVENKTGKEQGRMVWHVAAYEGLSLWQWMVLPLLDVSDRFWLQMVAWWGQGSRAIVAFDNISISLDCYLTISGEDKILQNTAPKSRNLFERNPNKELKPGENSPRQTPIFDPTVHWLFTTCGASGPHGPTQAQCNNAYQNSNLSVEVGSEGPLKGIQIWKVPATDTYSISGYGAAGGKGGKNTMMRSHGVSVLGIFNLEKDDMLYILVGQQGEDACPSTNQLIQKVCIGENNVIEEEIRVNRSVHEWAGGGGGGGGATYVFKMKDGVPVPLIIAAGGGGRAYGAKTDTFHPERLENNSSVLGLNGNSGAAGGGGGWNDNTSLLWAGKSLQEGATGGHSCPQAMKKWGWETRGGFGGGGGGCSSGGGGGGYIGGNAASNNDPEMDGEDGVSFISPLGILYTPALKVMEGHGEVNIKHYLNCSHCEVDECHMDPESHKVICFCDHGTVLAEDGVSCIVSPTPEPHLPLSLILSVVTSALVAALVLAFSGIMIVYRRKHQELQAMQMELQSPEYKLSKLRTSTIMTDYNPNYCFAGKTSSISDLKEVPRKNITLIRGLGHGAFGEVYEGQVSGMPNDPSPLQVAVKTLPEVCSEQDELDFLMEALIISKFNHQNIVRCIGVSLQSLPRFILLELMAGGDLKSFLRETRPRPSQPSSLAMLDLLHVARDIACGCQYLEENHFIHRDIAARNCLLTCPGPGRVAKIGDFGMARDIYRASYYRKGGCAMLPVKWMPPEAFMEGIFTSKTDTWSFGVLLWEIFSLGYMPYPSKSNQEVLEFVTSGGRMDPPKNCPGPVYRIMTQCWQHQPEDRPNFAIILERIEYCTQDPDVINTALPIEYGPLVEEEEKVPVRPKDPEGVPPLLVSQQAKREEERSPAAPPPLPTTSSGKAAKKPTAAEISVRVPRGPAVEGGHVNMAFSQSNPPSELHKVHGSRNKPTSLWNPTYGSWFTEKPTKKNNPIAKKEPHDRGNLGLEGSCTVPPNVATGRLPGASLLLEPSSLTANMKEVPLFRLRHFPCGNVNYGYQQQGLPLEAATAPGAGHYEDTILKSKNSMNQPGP
UniProt P10398: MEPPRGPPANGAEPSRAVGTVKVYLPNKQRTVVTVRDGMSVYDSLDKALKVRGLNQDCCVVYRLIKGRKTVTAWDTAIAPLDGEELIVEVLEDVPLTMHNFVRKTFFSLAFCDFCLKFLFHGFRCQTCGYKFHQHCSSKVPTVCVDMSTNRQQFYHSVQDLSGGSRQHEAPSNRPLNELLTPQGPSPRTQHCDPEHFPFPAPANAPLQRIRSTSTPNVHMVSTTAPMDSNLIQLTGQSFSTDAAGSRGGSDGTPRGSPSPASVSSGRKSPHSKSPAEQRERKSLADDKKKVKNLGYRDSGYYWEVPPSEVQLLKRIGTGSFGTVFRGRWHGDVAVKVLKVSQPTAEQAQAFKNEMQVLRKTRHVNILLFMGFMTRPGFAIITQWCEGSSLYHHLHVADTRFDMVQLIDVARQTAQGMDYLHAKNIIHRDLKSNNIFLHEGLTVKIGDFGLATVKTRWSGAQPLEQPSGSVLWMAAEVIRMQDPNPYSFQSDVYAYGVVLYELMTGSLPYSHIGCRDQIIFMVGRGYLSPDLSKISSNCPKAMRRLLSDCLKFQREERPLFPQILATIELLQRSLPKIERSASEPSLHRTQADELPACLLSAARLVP
UniProt O14965: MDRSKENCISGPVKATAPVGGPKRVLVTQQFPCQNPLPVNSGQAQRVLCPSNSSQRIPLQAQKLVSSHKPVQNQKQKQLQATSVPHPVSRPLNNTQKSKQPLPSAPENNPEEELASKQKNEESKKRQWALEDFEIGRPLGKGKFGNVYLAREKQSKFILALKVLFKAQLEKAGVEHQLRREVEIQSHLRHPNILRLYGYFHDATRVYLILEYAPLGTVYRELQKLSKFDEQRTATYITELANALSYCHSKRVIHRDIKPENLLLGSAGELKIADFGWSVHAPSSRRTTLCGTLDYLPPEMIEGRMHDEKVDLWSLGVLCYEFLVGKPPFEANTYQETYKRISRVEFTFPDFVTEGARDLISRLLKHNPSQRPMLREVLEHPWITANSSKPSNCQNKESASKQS
UniProt Q96GD4, whole entry: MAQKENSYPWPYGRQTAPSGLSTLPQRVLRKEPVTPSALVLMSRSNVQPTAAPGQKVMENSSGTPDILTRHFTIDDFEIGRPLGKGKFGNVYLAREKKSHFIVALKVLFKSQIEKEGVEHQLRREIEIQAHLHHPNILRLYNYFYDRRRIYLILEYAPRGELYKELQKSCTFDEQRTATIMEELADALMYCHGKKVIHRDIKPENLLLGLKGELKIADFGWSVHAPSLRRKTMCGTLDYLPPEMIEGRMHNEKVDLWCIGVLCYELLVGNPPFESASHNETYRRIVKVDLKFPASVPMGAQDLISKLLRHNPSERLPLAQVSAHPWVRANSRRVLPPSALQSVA
UniProt Q9UQB9: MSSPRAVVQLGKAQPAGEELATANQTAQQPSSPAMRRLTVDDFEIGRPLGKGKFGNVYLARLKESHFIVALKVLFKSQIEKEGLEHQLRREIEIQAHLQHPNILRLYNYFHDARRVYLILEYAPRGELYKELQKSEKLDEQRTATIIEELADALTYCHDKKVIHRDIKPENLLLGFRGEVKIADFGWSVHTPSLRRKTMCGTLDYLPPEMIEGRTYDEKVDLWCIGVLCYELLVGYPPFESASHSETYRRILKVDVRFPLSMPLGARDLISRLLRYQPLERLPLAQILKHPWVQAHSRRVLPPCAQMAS
UniProt P51813: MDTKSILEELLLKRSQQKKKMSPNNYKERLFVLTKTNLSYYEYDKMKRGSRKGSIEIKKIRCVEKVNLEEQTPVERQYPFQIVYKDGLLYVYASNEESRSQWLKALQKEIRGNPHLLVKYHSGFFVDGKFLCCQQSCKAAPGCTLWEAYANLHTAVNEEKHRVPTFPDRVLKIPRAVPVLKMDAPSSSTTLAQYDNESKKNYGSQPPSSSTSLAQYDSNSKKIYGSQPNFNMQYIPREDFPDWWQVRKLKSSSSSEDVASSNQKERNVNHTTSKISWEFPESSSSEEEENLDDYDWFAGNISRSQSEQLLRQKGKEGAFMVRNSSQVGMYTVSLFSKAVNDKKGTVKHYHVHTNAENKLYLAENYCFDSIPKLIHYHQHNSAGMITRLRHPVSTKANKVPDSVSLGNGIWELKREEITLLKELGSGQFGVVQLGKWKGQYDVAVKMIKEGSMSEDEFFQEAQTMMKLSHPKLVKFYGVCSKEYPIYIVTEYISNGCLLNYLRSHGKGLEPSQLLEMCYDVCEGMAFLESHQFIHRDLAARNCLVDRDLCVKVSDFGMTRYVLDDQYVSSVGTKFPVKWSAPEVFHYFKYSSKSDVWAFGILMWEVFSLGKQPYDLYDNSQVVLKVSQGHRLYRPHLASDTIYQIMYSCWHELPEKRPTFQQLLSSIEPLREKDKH
UniProt P15056, whole entry, looked up: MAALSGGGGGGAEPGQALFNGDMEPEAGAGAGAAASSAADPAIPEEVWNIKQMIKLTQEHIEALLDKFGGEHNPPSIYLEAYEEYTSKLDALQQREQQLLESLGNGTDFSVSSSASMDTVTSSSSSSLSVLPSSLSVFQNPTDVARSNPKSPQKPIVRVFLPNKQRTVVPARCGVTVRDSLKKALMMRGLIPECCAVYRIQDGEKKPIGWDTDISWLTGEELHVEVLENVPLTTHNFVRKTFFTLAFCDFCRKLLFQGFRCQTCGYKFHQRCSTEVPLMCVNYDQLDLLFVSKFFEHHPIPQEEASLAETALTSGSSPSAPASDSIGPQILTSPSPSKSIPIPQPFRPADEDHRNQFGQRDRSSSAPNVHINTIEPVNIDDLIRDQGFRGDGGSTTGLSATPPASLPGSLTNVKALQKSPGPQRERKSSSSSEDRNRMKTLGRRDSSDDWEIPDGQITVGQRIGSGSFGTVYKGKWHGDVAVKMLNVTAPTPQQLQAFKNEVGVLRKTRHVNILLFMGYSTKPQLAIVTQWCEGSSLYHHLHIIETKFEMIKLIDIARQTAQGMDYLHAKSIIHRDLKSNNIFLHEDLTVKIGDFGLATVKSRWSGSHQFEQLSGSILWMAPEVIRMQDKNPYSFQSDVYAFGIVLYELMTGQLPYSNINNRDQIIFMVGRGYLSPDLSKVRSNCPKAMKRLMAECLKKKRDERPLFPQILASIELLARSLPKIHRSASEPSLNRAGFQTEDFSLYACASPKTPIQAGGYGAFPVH

Key:
Assay in all cases: kinase-Nluc reporter destabilization hit call (1 = scored as downregulated) (binary); higher = compound decreases kinase abundance
Conditions in all cases: K562; 2-18 h
ABL1 = ABL1 (UniProt P00519)
AKT1 = AKT1 (UniProt P31749)
ALK = ALK (UniProt Q9UM73)
ARAF = ARAF (UniProt P10398)
AURKA = AURKA (UniProt O14965)
AURKB = AURKB (UniProt Q96GD4)
AURKC = AURKC (UniProt Q9UQB9)
BLK = BLK (UniProt P51451)
BMX = BMX (UniProt P51813)
BRAF = BRAF (UniProt P15056)

| SMILES | kinase-Nluc reporter destabilization hit call (ABL1) | kinase-Nluc reporter destabilization hit call (AKT1) | kinase-Nluc reporter destabilization hit call (ALK) | kinase-Nluc reporter destabilization hit call (ARAF) | kinase-Nluc reporter destabilization hit call (AURKA) | kinase-Nluc reporter destabilization hit call (AURKB) | kinase-Nluc reporter destabilization hit call (AURKC) | kinase-Nluc reporter destabilization hit call (BLK) | kinase-Nluc reporter destabilization hit call (BMX) | kinase-Nluc reporter destabilization hit call (BRAF) |
| --- | --- | --- | --- | --- | --- | --- | --- | --- | --- | --- |
| COc1cc(OC)c(F)c(COc2cnc(Nc3cnn(CCO)c3)nc2)c1F (2.5 µM) | inactive: 0 | inactive: 0 | inactive: 0 | inactive: 0 | inactive: 0 | inactive: 0 | inactive: 0 | inactive: 0 | inactive: 0 | inactive: 0 |
| Cc1ccc(F)c(NC(=O)Nc2ccc(-c3cccc4[nH]nc(N)c34)cc2)c1 [Linifanib] (2.5 µM) | active: 1 | inactive: 0 | active: 1 | inactive: 0 | inactive: 0 | inactive: 0 | inactive: 0 | inactive: 0 | inactive: 0 | inactive: 0 |
| CC(=O)N1CCN(c2ccc(OCC3COC(Cn4ccnc4)(c4ccc(Cl)cc4Cl)O3)cc2)CC1 (stereo not given) [Ketoconazole] (2.5 µM) | inactive: 0 | inactive: 0 | inactive: 0 | inactive: 0 | inactive: 0 | inactive: 0 | inactive: 0 | inactive: 0 | inactive: 0 | inactive: 0 |
| Cc1ncc(-c2ccnc(Nc3ccc(S(C)(=O)=O)cc3)n2)n1C(C)C (2.5 µM) | inactive: 0 | inactive: 0 | inactive: 0 | inactive: 0 | inactive: 0 | inactive: 0 | inactive: 0 | inactive: 0 | inactive: 0 | inactive: 0 |
| COc1ccc(NC(=O)N2CCN(c3nc(N)nc4c3cnn4C)[C@@H](C)C2)c(C)c1 (10 µM) | inactive: 0 | inactive: 0 | inactive: 0 | inactive: 0 | inactive: 0 | inactive: 0 | inactive: 0 | inactive: 0 | inactive: 0 | inactive: 0 |
| O=C1NCCc2[nH]c(-c3ccnc(-c4cnc5ccccc5c4)c3)cc21 (10 µM) | inactive: 0 | inactive: 0 | inactive: 0 | inactive: 0 | inactive: 0 | inactive: 0 | inactive: 0 | inactive: 0 | inactive: 0 | inactive: 0 |
| O=C(NOC[C@H](O)CO)c1ccc(F)c(F)c1Nc1ccc(I)cc1F (2.5 µM) | inactive: 0 | inactive: 0 | inactive: 0 | inactive: 0 | inactive: 0 | inactive: 0 | inactive: 0 | inactive: 0 | inactive: 0 | inactive: 0 |
| Cc1nc(N)sc1-c1ccnc(Nc2ccc(N3CCOCC3)cc2)n1 (10 µM) | inactive: 0 | inactive: 0 | inactive: 0 | inactive: 0 | inactive: 0 | inactive: 0 | inactive: 0 | inactive: 0 | inactive: 0 | inactive: 0 |
| Cn1c(=O)n(-c2ccc(C(C)(C)C#N)cc2)c2c3cc(-c4cnc5ccccc5c4)ccc3ncc21 [Dactolisib (Tosylate)] (10 µM) | active: 1 | inactive: 0 | inactive: 0 | inactive: 0 | inactive: 0 | inactive: 0 | inactive: 0 | inactive: 0 | inactive: 0 | active: 1 |
| CC1(C)CC=C(c2nc(C3CC(C)(C)OC(C)(C)C3)ccc2NC(=O)c2nc(C#N)c[nH]2)CC1 [Edicotinib] (2.5 µM) | inactive: 0 | inactive: 0 | inactive: 0 | inactive: 0 | inactive: 0 | inactive: 0 | inactive: 0 | inactive: 0 | inactive: 0 | inactive: 0 |
| O=C(O)CCNC(=O)c1ccc(/N=N/c2ccc(O)c(C(=O)O)c2)cc1 [Balsalazide] (10 µM) | inactive: 0 | inactive: 0 | inactive: 0 | inactive: 0 | inactive: 0 | inactive: 0 | inactive: 0 | inactive: 0 | inactive: 0 | inactive: 0 |
| Cc1ccc(NC(=O)Nc2nnc(Sc3ncnc4cc(OCCCN5CCOCC5)ccc34)s2)cc1 (10 µM) | inactive: 0 | inactive: 0 | inactive: 0 | inactive: 0 | inactive: 0 | inactive: 0 | inactive: 0 | inactive: 0 | inactive: 0 | inactive: 0 |
| C/C=C(/C)C(=O)O[C@H]1Cc2cc3ccc(=O)oc3cc2OC1(C)C [Decursinol angelate] (10 µM) | inactive: 0 | inactive: 0 | inactive: 0 | inactive: 0 | inactive: 0 | inactive: 0 | inactive: 0 | inactive: 0 | inactive: 0 | inactive: 0 |
| CNC(=O)c1ccccc1Nc1nc(Nc2ccc(N3CCOCC3)cc2OC)ncc1Cl (2.5 µM) | inactive: 0 | inactive: 0 | inactive: 0 | inactive: 0 | inactive: 0 | inactive: 0 | inactive: 0 | inactive: 0 | inactive: 0 | inactive: 0 |

Laid out differently: results already given
SMILES	kinase-Nluc reporter destabilization hit call (ABL1)	kinase-Nluc reporter destabilization hit call (AKT1)	kinase-Nluc reporter destabilization hit call (ALK)	kinase-Nluc reporter destabilization hit call (ARAF)	kinase-Nluc reporter destabilization hit call (AURKA)	kinase-Nluc reporter destabilization hit call (AURKB)	kinase-Nluc reporter destabilization hit call (AURKC)	kinase-Nluc reporter destabilization hit call (BLK)	kinase-Nluc reporter destabilization hit call (BMX)	kinase-Nluc reporter destabilization hit call (BRAF)
Cc1ccc(NC(=O)Nc2nnc(Sc3ncnc4cc(OCCCN5CCOCC5)ccc34)s2)cc1 (10 µM)	inactive: 0	inactive: 0	inactive: 0	inactive: 0	inactive: 0	inactive: 0	inactive: 0	inactive: 0	inactive: 0	inactive: 0
C/C=C(/C)C(=O)O[C@H]1Cc2cc3ccc(=O)oc3cc2OC1(C)C [Decursinol angelate] (10 µM)	inactive: 0	inactive: 0	inactive: 0	inactive: 0	inactive: 0	inactive: 0	inactive: 0	inactive: 0	inactive: 0	inactive: 0
CNC(=O)c1ccccc1Nc1nc(Nc2ccc(N3CCOCC3)cc2OC)ncc1Cl (2.5 µM)	inactive: 0	inactive: 0	inactive: 0	inactive: 0	inactive: 0	inactive: 0	inactive: 0	inactive: 0	inactive: 0	inactive: 0
